Earlier results as cited in patent publication US10500232B2, “Small molecule cellular reprogramming to generate neuronal cells” (The J. David Gladstone Institutes, a testamentary trust …, priority 2013, dated 2019).
At least one compound was matched to its structure with a doubt left.

Test system: histone deacetylases (HDACs)
Conditions: isoform not stated; read-out: IC50 (histone deacetylase); cited from earlier work

## CCC(=O)CCCCC[C@@H]1NC(=O)[C@H]2CCCCN2C(=O)[C@H]([C@@H](C)CC)NC(=O)[C@H](Cc2cn(OC)c3ccccc23)NC1=O [Apicidin, Cyclo[(2S)-2-Amino-8-oxodecanoyl-1-methoxy-L-tryptophyl-L-isoleucyl-(2R)-2-piperidine-carbonyl]]
  IC50: 0.7 nM
